{"source": "patent US20110034442A1", "about": "“Use and Methods of Use for an Antagonist of the Serotin3 Receptor (5-HT3) and a Selective Modulator of Chloride Channels for the Treatment of Addiction to or Dependence on Medicines/Drugs or Nervous System Disorders” (priority 2007, published 2011)", "origin": "cited, not measured here", "key": {"acetylcholine release": {"test_system": "acetylcholine release", "details": "GABA(A) receptor antagonist given with ondansetron; rat frontal cortex"}, "K+-evoked [3H]ACh efflux": {"test_system": "K+-evoked [3H]ACh efflux", "details": "slices from rat entorhinal cortex preloaded with [3H]choline"}}, "note": "At least one compound was matched to its structure with a doubt left.", "data": [{"smiles": "CN1CCc2cc3c(cc2[C@H]1[C@@H]1OC(=O)c2c1ccc1c2OCO1)OCO3", "note": "[bicuculline]", "values": [{"measurement": "peak increase of acetylcholine release over basal levels", "setting": "acetylcholine release", "result": 238, "unit": "%"}, {"measurement": "K+-evoked [3H]ACh efflux", "setting": "K+-evoked [3H]ACh efflux", "result": "enhanced"}]}]}
